Data taken from ChEMBL document CHEMBL3988442, “University of Dundee, Small-Polar-MMV Screening Library” (2021).

Protein sequences, listed by entry. Tags and fused reporters are not part of them. Residues count along the entry.
UniProt I6X8D2, whole entry: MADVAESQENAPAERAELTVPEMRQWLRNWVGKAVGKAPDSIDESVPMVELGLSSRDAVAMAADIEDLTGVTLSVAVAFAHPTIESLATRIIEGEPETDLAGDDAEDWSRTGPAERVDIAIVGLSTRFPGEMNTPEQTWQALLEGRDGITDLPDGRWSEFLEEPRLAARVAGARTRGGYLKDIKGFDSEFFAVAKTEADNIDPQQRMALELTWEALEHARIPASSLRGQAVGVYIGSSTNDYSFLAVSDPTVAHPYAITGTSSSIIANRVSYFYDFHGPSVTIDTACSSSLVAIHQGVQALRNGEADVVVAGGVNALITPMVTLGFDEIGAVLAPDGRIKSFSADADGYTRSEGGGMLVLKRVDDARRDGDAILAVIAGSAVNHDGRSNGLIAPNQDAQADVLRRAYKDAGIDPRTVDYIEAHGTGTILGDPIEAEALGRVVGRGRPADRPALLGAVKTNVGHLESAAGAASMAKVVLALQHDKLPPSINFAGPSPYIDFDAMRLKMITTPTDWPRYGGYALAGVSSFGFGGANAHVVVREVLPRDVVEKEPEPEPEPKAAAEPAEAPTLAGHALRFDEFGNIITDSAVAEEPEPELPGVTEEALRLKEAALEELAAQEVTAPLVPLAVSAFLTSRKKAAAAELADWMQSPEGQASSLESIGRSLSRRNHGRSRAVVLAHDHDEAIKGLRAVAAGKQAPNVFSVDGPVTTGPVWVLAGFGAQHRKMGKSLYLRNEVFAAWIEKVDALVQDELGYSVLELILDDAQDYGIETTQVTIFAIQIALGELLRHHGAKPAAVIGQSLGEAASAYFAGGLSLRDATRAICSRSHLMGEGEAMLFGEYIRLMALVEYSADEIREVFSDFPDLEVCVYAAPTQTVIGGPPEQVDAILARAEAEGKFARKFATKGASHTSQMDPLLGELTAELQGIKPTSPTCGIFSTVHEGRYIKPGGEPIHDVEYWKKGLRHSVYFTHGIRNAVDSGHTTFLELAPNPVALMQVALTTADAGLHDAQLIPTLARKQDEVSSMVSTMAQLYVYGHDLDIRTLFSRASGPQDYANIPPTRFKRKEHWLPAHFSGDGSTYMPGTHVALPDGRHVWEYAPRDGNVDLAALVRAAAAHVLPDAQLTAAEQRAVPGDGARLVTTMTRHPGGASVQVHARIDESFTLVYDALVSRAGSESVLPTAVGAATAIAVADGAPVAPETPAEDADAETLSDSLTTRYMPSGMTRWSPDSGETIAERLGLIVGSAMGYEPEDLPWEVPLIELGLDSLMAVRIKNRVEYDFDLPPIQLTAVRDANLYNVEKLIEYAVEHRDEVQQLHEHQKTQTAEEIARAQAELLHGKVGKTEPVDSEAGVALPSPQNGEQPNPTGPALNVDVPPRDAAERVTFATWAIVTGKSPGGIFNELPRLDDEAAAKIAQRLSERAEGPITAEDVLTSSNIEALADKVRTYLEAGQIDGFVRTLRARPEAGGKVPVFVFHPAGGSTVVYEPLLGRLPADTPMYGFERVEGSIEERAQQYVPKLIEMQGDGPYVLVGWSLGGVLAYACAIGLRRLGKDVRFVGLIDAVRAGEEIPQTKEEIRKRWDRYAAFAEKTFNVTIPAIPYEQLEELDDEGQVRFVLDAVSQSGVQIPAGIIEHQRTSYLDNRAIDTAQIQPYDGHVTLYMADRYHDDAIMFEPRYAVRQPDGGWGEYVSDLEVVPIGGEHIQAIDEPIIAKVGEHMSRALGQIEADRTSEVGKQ
UniProt A4I591, 1-473: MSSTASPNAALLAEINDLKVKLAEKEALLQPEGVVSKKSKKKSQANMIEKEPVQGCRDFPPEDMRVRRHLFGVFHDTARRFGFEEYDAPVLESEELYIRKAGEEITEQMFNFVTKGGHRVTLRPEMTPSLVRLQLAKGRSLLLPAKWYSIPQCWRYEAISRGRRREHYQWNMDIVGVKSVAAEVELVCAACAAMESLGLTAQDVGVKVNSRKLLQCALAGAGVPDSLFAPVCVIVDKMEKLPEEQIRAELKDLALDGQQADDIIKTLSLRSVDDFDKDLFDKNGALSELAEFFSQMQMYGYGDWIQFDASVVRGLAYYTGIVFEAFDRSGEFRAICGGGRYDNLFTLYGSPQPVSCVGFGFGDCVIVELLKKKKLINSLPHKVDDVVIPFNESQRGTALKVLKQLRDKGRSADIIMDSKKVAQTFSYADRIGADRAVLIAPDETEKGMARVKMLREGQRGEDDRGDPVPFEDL
UniProt P9WPC5, whole entry: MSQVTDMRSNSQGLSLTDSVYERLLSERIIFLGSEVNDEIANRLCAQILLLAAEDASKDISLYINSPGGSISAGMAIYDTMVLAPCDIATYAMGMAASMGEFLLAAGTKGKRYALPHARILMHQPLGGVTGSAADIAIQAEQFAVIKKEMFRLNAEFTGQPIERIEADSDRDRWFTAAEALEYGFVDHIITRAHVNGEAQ
UniProt P9WPC3, whole entry partner: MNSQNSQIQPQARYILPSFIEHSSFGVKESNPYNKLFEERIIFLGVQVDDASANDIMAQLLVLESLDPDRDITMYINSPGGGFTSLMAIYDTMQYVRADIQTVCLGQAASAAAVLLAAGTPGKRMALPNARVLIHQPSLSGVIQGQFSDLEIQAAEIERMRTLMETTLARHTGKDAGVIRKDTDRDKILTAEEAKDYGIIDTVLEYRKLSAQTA
UniProt P9WNZ1, whole entry: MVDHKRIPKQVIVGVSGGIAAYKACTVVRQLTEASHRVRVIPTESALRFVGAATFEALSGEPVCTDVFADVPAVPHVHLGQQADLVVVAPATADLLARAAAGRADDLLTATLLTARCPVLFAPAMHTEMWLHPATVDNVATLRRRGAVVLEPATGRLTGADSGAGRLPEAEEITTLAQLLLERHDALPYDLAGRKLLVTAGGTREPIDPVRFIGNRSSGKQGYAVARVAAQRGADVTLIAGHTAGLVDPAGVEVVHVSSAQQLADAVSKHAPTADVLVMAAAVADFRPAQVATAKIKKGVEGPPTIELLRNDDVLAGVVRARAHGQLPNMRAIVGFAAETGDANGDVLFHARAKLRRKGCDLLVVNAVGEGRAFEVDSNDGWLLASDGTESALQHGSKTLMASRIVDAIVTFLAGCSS

Results are given as percent effect. The record does not define 0% and 100%; most values in the screen are far below 50% and negative numbers occur (in some assays of this library far below -100). The compounds are a random part of those screened. Two or more numbers in one place are separate tests of the same structure; such repeats can differ widely. A dash means the value is not listed here; it may have been measured.

Pks13 thioesterase: 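Enzyme assay of the thioesterase domain of polyketide synthase 13; the read-out is not stated. Target: Polyketide synthase Pks13, Mycobacterium tuberculosis (UniProt I6X8D2). Compounds at 30 µM. The record gives no direction; the compounds picked for IC50 retests had high values, so higher reads as stronger inhibition. About 67,000 compounds were tested under these conditions; 0.46% (about 300) showed 50% or more at least once.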
LiHisRS: 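Histidine-tRNA ligase, Leishmania infantum (UniProt A4I591). Enzyme assay of histidyl-tRNA synthetase; the read-out is not stated. Tested at 30 µM. The record gives no direction; compounds that gave an IC50 in retests scored well above the rest, so higher reads as stronger inhibition. The assay is labelled LdHisRS but filed under L. infantum. Of about 69,000 compounds tested this way, about 410 (0.6%) reached 50% or more in at least one test.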
Leishmania in macrophages: 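Cell assay of Leishmania donovani living inside macrophages; the read-out is not stated. Concentration: 30 µM. Direction is inferred from retests: higher values go with stronger inhibition. Size under these conditions: about 69,000 compounds, about 1,000 of them at 50% or above in at least one test.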
ClpP1P2: 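Protease assay of ClpP1P2, read by the AMC dye that it sets free. Target: ClpP1P2, Mycobacterium tuberculosis (UniProt P9WPC5 and UniProt P9WPC3). Compounds at 50 µM. Higher reads as stronger inhibition, judged from the few compounds that gave an IC50. Most other retested compounds had strongly negative values. Of about 69,000 compounds tested this way, about 10 (0.015%) reached 50% or more in at least one test.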
Toxoplasma: 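Assay of Toxoplasma gondii numbers, read through their beta-galactosidase reporter with a colour substrate. Compounds at 10 µM. The record gives no direction; the compounds picked for IC50 retests had high values, so higher reads as fewer parasites. Of about 67,000 compounds tested this way, about 260 (0.38%) reached 50% or more in at least one test.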
CoaBC: 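Enzyme assay of CoaBC with a phosphate dye (Biomol Green) read at 650 nm. Target: Coenzyme A biosynthesis protein CoaBC, Mycobacterium tuberculosis (UniProt P9WNZ1). Tested at 30 µM. Higher reads as stronger inhibition, judged from the few compounds that gave an IC50. Most strong results did not repeat in a second test. About 67,000 compounds were tested under these conditions; 0.06% (about 40) showed 50% or more at least once.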

SMILES,Pks13 thioesterase,LiHisRS,Leishmania in macrophages,ClpP1P2,Toxoplasma,CoaBC
CCS(=O)(=O)N1CC[C@H]2OCC[C@@]2(C(=O)NC)C1,-6.788%,11%,-,-4.562%,-,1.36%
O=C(Cc1cccs1)NCCNc1nccc(C(F)(F)F)n1,-32.27%,11.67%,2.934%,6.234%,-15.88%,-7.923%
CCOCCC1(C(=O)N2CCCC(c3ncc[nH]3)C2)CCCC1 (configuration not stated),-8.095%,6.024%,-4.342%,-0.5446%,-4.183%,8.481%
O=C(c1cc(F)ccc1O)N1CCN(C2CCSC2)CC1 (configuration not stated),-35.71%,21.52%,7.416%,-11.56%,-2.199%,1.394%
CN(C)C(=O)N1CCCC2(CCN(Cc3ccncc3)C2)C1 (configuration not stated),-8.469%,7.692%,21.84%,-0.5209%,-32.6%,-5.417%
CC1(C)CC(N(Cc2ccccc2)Cc2c[nH]cn2)CC(C)(C)N1,-9.5%,8.633%,-,12.14%,-,5.502%
Nc1nc2c(c(NCC(c3cccnc3)N3CCOCC3)n1)CCCC2 (configuration not stated),-19.02%,20.78%,-31.76%,-10.39%,-5.197%,4.853%
Cc1ccc(N2CCC3(CN(CCO)CCC3(F)F)C2)nn1 (configuration not stated),-1.532%,9.434%,-,-1.213%,-,4.39%
CN(Cc1nc(-c2ccccc2)no1)C(=O)CNS(C)(=O)=O,-12.87%,14.52%,26.81%,2.426%,2.375%,3.023%
CCn1cc(S(=O)(=O)Nc2ccc3[nH]c(C4CCC4)nc3c2)cn1,-22.62%,7.752%,-2.725%,6.445%,11.63%,0.1229%
CN1CCNC(Cc2ccc(-c3cccs3)cc2)C1=O (configuration not stated),14.13%,-55.79%,12.61% and 20.17%,-1.894%,-10.33%,4.136%
CNc1cc(C2CCCN(Cc3ccccc3OCC(=O)O)C2)ccn1 (configuration not stated),-2.244%,18%,19.06%,-13.43%,-30.39%,5.824%
CC(OCC(F)(F)F)C(=O)NCc1ccc(-n2cncn2)nc1 (configuration not stated),-15.87%,13.33%,25.28%,4.811%,-2.894%,8.205%
CN(Cc1nnc(C2CC2)n1C)S(=O)(=O)Cc1ccccc1F,-1.489%,21.05%,4.523% and 15.04%,-2.725%,-11.46%,3.038%
CSc1ncc(CN2C[C@H]3CC[C@@H]2CN(C2CCOCC2)C3)cn1,-43.16%,20%,-,2.435%,-,2.683%
[H][C@]12CC(COCC(=O)N(C)C)C[C@]1([H])N(Cc1ccco1)CCO2 (some centres not stated),-,-,10.95% and -0.3526%,-,-8.252%,-
Cc1cc(C2CCC2)nc(N2CCC3(CCCN(C)C3=O)C2)n1 (configuration not stated),2.447%,24.39%,7.013%,-18.17%,5.808%,0.1272%
CNc1nc(C(=O)NCc2cccnc2N(C)C)cs1,-40.32%,24.18%,32.88%,-2.757%,-2.456%,-5%
O=C1NCCO[C@H]2CN(C(=O)Cc3csc4ccccc34)CC[C@@H]12,-17.54%,-10%,-,-5.46%,-,1.232%
COc1ccc2c(c1)NC(=O)C2OC(=O)Cc1ccccc1C (configuration not stated),-0.8993%,4.505%,-0.8494%,3.192%,15%,-3.502%
Cc1nnsc1CN1C[C@H]2CC[C@@H]1CN(Cc1ccccn1)C2,2.486%,22.92%,-,-10.78%,-,5.769%
CCn1cnnc1CNC(=O)NC(C)C(C)C (configuration not stated),-4.56%,5.479%,-4.525%,2.022%,-1.271%,2.41%
Cc1nc(C2CCCN(C(=O)c3cccc(S(C)(=O)=O)c3)C2)no1 (configuration not stated),-8.118%,5.405%,21.73%,-1.225%,-7.368%,11.49%
CN(c1ccc(CNc2ccc(Cl)cn2)cc1)S(C)(=O)=O,-19.29%,21.13%,11.08%,-1.849%,17.45%,14.65%
OCC1N(Cc2ccco2)[C@H]2CC[C@]1(O)CC2 (some centres not stated),9%,12.24%,-,0.3688%,-,1.937%
CC(=O)c1ccc(S(=O)(=O)NCc2cccnc2N(C)C)cc1,-2.032%,20.34%,40.68%,-9.36%,-5.793%,1.575%
COc1cccc(N2CCN(C(=O)CO)CC2=O)c1,8.278%,3.774%,-19.85%,-11.21%,5.612%,10.32%
COc1ccc(C2CC(=O)Nc3nc(N4CCOCC4)sc32)cc1 (configuration not stated),2.837%,105%,11.76%,-188.1%,-19.01%,4.937%
NC(=O)N1CCCC(C(=O)NCCOc2ccc3c(c2)OCO3)C1 (configuration not stated),-5.568%,8.333%,-0.886%,6.936%,-5.192%,8.931%
CN(C)c1ncc(-c2cccc(C(N)=O)c2)c(C2CNCCO2)n1 (configuration not stated),-4.676%,5.369%,-,-28.4%,-,0%
COc1c(CNC2(c3noc(C)n3)CCC2)c(C(C)C)nn1C.Cl,-,-,-47.25%,-,11.38%,-
[H][C@@]12CN(Cc3cccnc3)C[C@]1([H])C(=O)NC21CCN(C(=O)C(C)C)CC1,-,-,-1.615%,-,-18.26%,-
Cc1cc(C)nc(CN(C)C(=O)c2ccccc2C2CCNC2)c1 (configuration not stated),-19.05%,5.208%,11.08%,-10.17%,4.578%,4.37%
CC1c2ncc(COCC3CC3)n2CCN1S(=O)(=O)N(C)C (configuration not stated),4.261%,5.172%,7.946%,-4.953%,-0.3776%,-
COc1ccc(OC)c(CCNC(=O)CCC2CCCO2)c1 (configuration not stated),-,9.677%,20.34%,-3.092%,23.63%,3.423%
Cc1cc(C)n(C2CCCN(C(=O)c3cccc(F)c3F)C2)n1 (configuration not stated),-11.3%,3.529%,-2.431%,-1.604%,-2.582%,-0.5076%

For reference, 2 entries once more:

* Cc1cc(C)n(C2CCCN(C(=O)c3cccc(F)c3F)C2)n1 (configuration not stated) : Pks13 thioesterase: -11.3%; LiHisRS: 3.529%; Leishmania in macrophages: -2.431%; ClpP1P2: -1.604%; Toxoplasma: -2.582%; CoaBC: -0.5076%
* CN1CCNC(Cc2ccc(-c3cccs3)cc2)C1=O (configuration not stated) : Pks13 thioesterase: 14.13%; LiHisRS: -55.79%; Leishmania in macrophages: 12.61% and 20.17%; ClpP1P2: -1.894%; Toxoplasma: -10.33%; CoaBC: 4.136%